Results from article PMC10291030.
Results are given in words; binding and its absence hold for the method and conditions named. A result given as binding can be weak or reduced; the word gives no strength.

Target: T1, PsaK (Chroomonas placoidea)
T1 sequence: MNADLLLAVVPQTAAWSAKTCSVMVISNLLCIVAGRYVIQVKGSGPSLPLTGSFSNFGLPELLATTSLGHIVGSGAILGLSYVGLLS
Experiment: cryo-EM structure; native PSI–ACPI supercomplex isolated from C. placoidea thylakoids in 0.02% α-DDM, MES–NaOH pH 6.5; two classes: PSI–14ACPI at 2.66 Å and PSI–11ACPI (without ACPI-9/10/11) at 2.71 Å; both purified

Substance	binding
alloxanthin-chlorophyll a/c protein ACPI-1 (Chroomonas placoidea)	binds
alloxanthin-chlorophyll a/c protein ACPI-11 (Chroomonas placoidea)	binds
